A short description of this data set: general procedure: Fmoc solid-phase peptide synthesis; p-alkoxybenzylalcohol resin / preloaded Fmoc-amino acid resins (Biosearch, Bachem); BOP/HOBT (TBTU/HOBT for cyclic TYCAPAKSE). As to conditions: whole synthesis.

Experimental findings from patent US6723699B1 (Cephalon, Inc., priority 1989, dated 2004) are described below.

End groups of sequences in plain letters are not given here.

Sequence EPYCAPPAKSE registered a crude mass (scale 1.0 gram of resin) of 110 mg.
The sequence TYCAPAKSE gave a crude mass (scale 0.5 g of resin) of 125 mg.
